Measurements reported in PubChem BioAssay AID743121 (NCATS, 2013)

- Screen: 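Genes whose silencing strengthens cell killing by camptothecin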 (primary screen)
- Cell system: MDA-MB-231 cells, a human breast cancer line
- Reagent: single siRNA against human genes, 20 nM siRNA (0.8 pmol per well)
- Timing: 120 h (drug added 48 h after transfection, read 72 h later)
- Challenge: camptothecin 20 nM (about EC30) for 72 h; vehicle 0.1% DMSO in parallel plates
- Detection: 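Cell viability by ATP luminescence (CellTiter-Glo) as % of non-targeting siRNA wells, and the log2 ratio of viability without drug over viability with camptothecin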
- Reading the numbers: log2 vehicle/camptothecin viability: higher = stronger sensitisation to camptothecin; viability with camptothecin: higher = more viable cells
- Active means: 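Active genes have an RSA gene-level p-value below 0.001, computed from the ratios of their separate siRNAs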
This is one part, drawn at random, of about 26,000 deposited reagents. 167 of them (0.63%) count as active. 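Calls are per gene from RSA p-values that are not deposited; an individual active-marked siRNA can sensitise only weakly.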 Entries without a mark were called inactive. Reagents against one gene are numbered here. Further read-outs or replicates are left out here.

GAA #1 → log2 vehicle/camptothecin viability: 0.251; viability with camptothecin (% of control): 56.4
GAA #2 → log2 vehicle/camptothecin viability: -0.162; viability with camptothecin (% of control): 103
GAA #3 → log2 vehicle/camptothecin viability: -0.177; viability with camptothecin (% of control): 72.8
GAA #4 → log2 vehicle/camptothecin viability: -0.0458; viability with camptothecin (% of control): 106
SMAD4 #1 → log2 vehicle/camptothecin viability: -0.491; viability with camptothecin (% of control): 73
SMAD4 #2 → log2 vehicle/camptothecin viability: 0.146; viability with camptothecin (% of control): 65.7
SMAD4 #3 → log2 vehicle/camptothecin viability: -0.306; viability with camptothecin (% of control): 51.8
SMAD4 #4 → log2 vehicle/camptothecin viability: -0.401; viability with camptothecin (% of control): 82.8
COPG1 #1 → log2 vehicle/camptothecin viability: -0.325; viability with camptothecin (% of control): 17.9
COPG1 #2 → log2 vehicle/camptothecin viability: 0.0998; viability with camptothecin (% of control): 10.7
COPG1 #3 → log2 vehicle/camptothecin viability: -0.0785; viability with camptothecin (% of control): 2.99
COPG1 #4 → log2 vehicle/camptothecin viability: -0.638; viability with camptothecin (% of control): 12.9
MROH1 #1 → log2 vehicle/camptothecin viability: -0.0386; viability with camptothecin (% of control): 88.6
MROH1 #2 → log2 vehicle/camptothecin viability: -0.105; viability with camptothecin (% of control): 51.1
MROH1 #3 → log2 vehicle/camptothecin viability: -0.284; viability with camptothecin (% of control): 64
MROH1 #4 → log2 vehicle/camptothecin viability: -0.231; viability with camptothecin (% of control): 62.5
MROH1 #5 → log2 vehicle/camptothecin viability: -0.605; viability with camptothecin (% of control): 39.3
MROH1 #6 → log2 vehicle/camptothecin viability: -0.307; viability with camptothecin (% of control): 48.5
MROH1 #7 → log2 vehicle/camptothecin viability: -0.453; viability with camptothecin (% of control): 63.2
MROH1 #8 → log2 vehicle/camptothecin viability: 0.232; viability with camptothecin (% of control): 30.6
